Percent effect of library compounds

Protein sequences, listed by entry. Tags and fused reporters are not part of them. Residues count along the entry.
UniProt P9WNZ1, whole entry: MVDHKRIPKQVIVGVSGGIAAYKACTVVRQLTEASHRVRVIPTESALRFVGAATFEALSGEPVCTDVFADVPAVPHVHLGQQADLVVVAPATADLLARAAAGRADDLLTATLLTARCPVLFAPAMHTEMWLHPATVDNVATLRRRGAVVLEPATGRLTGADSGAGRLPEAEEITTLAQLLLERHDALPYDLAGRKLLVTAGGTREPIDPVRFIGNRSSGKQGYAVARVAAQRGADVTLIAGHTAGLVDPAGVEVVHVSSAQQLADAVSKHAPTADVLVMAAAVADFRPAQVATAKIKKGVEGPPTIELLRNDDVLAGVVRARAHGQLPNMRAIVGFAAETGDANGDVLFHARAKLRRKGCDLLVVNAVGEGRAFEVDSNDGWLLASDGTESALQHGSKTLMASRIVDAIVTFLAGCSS
UniProt I6X8D2, whole entry: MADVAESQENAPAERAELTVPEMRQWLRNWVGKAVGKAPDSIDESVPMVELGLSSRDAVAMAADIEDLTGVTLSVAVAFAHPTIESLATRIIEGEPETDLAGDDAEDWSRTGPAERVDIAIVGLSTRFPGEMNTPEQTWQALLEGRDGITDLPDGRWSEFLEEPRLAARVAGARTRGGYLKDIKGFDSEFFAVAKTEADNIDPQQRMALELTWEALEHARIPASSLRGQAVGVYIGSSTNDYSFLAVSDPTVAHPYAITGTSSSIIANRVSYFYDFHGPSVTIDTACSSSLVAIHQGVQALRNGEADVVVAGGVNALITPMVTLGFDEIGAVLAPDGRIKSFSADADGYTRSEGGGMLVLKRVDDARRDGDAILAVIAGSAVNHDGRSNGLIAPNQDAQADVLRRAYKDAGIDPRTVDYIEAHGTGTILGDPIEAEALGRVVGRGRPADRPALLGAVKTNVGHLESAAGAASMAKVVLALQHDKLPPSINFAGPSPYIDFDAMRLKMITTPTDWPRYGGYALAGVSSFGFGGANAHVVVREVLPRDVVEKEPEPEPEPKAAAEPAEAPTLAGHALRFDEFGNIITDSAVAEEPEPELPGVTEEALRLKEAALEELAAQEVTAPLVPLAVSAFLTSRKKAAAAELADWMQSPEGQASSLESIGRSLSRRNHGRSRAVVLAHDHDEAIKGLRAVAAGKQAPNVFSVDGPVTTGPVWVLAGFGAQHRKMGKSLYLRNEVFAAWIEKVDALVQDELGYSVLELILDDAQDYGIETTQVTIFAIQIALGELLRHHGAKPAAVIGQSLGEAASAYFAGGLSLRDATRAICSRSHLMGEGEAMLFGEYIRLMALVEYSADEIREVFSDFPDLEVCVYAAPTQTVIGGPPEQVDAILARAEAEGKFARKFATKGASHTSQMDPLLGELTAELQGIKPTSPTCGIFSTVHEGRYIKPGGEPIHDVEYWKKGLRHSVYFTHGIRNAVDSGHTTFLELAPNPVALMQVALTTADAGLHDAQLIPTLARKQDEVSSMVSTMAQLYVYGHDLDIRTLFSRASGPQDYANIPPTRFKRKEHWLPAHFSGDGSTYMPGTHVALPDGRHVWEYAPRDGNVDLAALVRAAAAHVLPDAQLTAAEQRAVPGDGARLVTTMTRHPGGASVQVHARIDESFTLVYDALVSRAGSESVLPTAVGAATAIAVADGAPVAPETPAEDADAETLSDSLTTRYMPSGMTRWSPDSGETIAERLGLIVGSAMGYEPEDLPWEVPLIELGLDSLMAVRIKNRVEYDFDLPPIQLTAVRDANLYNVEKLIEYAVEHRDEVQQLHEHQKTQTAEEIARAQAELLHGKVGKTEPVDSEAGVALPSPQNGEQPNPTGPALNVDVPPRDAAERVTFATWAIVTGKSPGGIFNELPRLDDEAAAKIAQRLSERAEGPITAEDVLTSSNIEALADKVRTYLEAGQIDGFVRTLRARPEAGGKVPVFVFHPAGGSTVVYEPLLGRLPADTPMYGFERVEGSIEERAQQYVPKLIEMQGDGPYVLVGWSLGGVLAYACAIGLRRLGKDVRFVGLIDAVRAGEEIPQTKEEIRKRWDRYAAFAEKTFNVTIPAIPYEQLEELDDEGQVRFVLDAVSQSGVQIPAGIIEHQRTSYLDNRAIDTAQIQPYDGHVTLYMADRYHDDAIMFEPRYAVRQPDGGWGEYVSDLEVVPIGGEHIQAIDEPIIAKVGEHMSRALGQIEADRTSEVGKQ
UniProt P9WPC5, whole entry: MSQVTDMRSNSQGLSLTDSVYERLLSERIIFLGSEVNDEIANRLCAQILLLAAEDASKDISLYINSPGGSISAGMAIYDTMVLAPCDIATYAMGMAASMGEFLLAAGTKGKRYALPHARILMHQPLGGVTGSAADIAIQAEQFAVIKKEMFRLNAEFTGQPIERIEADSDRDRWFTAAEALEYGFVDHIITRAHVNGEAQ
UniProt P9WPC3, whole entry partner: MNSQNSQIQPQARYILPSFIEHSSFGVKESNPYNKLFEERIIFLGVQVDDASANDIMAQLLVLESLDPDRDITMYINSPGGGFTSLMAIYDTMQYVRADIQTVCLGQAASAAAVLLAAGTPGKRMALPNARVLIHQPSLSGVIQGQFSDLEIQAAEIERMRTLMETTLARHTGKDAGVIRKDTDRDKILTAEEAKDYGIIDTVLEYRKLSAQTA
UniProt Q4DA54, 1-478: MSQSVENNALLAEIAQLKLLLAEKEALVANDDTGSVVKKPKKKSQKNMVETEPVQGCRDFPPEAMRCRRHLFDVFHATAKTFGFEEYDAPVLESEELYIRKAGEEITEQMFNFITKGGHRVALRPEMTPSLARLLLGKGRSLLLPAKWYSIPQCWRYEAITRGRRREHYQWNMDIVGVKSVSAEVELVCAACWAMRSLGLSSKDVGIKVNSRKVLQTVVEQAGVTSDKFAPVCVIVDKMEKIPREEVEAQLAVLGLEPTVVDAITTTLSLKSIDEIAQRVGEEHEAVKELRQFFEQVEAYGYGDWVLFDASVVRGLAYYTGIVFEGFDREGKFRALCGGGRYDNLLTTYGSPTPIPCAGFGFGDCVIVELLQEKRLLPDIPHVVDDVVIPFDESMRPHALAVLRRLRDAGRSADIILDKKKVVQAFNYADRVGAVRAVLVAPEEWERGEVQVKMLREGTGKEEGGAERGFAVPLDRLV

CoaBC: 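Coenzyme A biosynthesis protein CoaBC, Mycobacterium tuberculosis (UniProt P9WNZ1). Enzyme assay of CoaBC with a phosphate dye (Biomol Green) read at 650 nm. Compounds at 30 µM. Higher reads as stronger inhibition, judged from the few compounds that gave an IC50. Most strong results did not repeat in a second test. Of about 67,000 compounds tested this way, about 40 (0.06%) reached 50% or more in at least one test.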
Leishmania in macrophages: 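Cell assay of Leishmania donovani living inside macrophages; the read-out is not stated. Concentration: 30 µM. The record gives no direction; compounds that gave an IC50 in retests scored well above the rest, so higher reads as stronger inhibition. Of about 69,000 compounds tested this way, about 1,000 (1.5%) reached 50% or more in at least one test.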
Pks13 thioesterase: 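Polyketide synthase Pks13, Mycobacterium tuberculosis (UniProt I6X8D2). Enzyme assay of the thioesterase domain of polyketide synthase 13; the read-out is not stated. Compounds at 30 µM. The record gives no direction; the compounds picked for IC50 retests had high values, so higher reads as stronger inhibition. Of about 67,000 compounds tested this way, about 300 (0.46%) reached 50% or more in at least one test.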
ClpP1P2: 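Protease assay of ClpP1P2, read by the AMC dye that it sets free. Target: ClpP1P2, Mycobacterium tuberculosis (UniProt P9WPC5 and UniProt P9WPC3). Concentration: 50 µM. Higher reads as stronger inhibition, judged from the few compounds that gave an IC50. Most other retested compounds had strongly negative values. About 69,000 compounds were tested under these conditions; 0.015% (about 10) showed 50% or more at least once.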
TcHisRS: 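Enzyme assay of histidyl-tRNA synthetase; the read-out is not stated. Target: Histidine-tRNA ligase, Trypanosoma cruzi CL Brener (UniProt Q4DA54). Tested at 30 µM. Direction is inferred from retests: higher values go with stronger inhibition. Of about 69,000 compounds tested this way, about 31 (0.045%) reached 50% or more in at least one test.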

Each number is a percent effect as filed.
The record does not define 0% and 100%; most values in the screen are far below 50% and negative numbers occur (in some assays of this library far below -100).
The compounds are a random part of those screened.
Two or more numbers in one place are separate tests of the same structure; such repeats can differ widely.
A dash means the value is not listed here; it may have been measured.

compound,CoaBC,Leishmania in macrophages,Pks13 thioesterase,ClpP1P2,TcHisRS
COCCc1noc(CN2CCCc3cccc(OC)c32)n1,-2.439%,16.92%,-29.1%,-7.815%,3.922%
COc1ccccc1CNC(Cc1cccs1)c1nc(C)cs1.Cl (centres undefined),-,2.894% & 17.43%,-,-,-
CCn1cnnc1CNC(=O)c1cc(Cl)ccc1F,10.56%,21.84%,-5.895%,3.548%,-1.127%
[H][C@@]12C[C@@H](c3ccnc(C)n3)O[C@]1([H])CN(S(=O)(=O)c1ccccc1)C2,-,1.484%,-,-,-
Cc1nc[nH]c1CN1C[C@@H]2OCCN(c3ncccn3)[C@@H]2C1,4.822%,-,-0.5014%,0.08037%,5.911%
COc1ccc(C2(NC(=O)C3CC(=O)N(C)C3)CCCC2)cc1 (centres undefined),-1.392%,18%,-5.149%,-15.21%,2.484%
Cc1[nH]ncc1C(=O)NCC(CO)Cc1ccc(Cl)cc1 (centres undefined),8.763% & 38.27%,-6.767%,-11.25%,1.986%,6.736%
Cc1cc(N2CCC(n3cc(CCCO)nn3)CC2)ccn1,-1.597%,23.01%,4.14%,-14.38%,7.143%
COc1ccc(CC(=O)N2CCC[C@@H](N)[C@@H]2c2ccccc2F)cc1,6.459%,-,-1.386%,-15.95%,2.682%
CN1CCN(c2ccc(NC(=O)c3ccccn3)c(C(F)(F)F)c2)CC1,-1.373%,-19.38%,-0.4159%,11.53%,1.657%
CN1CCC(N(Cc2ccccc2)C(=O)c2nccn3ccnc23)CC1,-14.99%,13.8%,-25.8%,-7.441%,7.843%
C[C@@H]1CN(C(=O)CCN2CCCC2)CC[C@@]1(O)C1CCC1,-3.672%,22.37%,-34.14%,-5.08%,-7.143%
Cn1ncc(NCc2cccc(OCC(F)(F)F)c2)c(Cl)c1=O,2.089%,25.99%,-15.15%,-23%,0.565%
CC(C)[C@H]1COC(=O)N1Cc1nnc(-c2ccccc2)o1,-5.941%,21.34%,-4.512%,-3.067%,4.819%
COc1cccc(CN(C)Cn2nc(C(C)(C)C)ccc2=O)c1,2.335%,15.68%,-9.122%,0.7052%,6.667%
N#Cc1ncn(CCS(=O)(=O)c2ccccc2)n1,7.595%,14.43%,-26.11%,4.614%,1.478%
O=c1cc2c(nn1CN1CCSCC1)CCC2,0%,-4.213% & 20.47%,-8.064%,-11.03%,1.205%
CCC(C)N(Cc1cccnc1)C(=O)c1ccc(F)c(O)c1 (centres undefined),11.32%,-18.33%,-8.908%,17.03%,4.124%
C[C@@H]1CN(C(=O)C2(Cn3cccn3)CC2)C[C@@]1(O)C1CCC1,2.589%,-16.14%,-8.804%,-8.555%,10.05%
CN(Cc1ccsc1)C(=O)CN1CCOC(Cn2cccn2)C1 (centres undefined),1.318%,-14.42%,-8.516%,0.9622%,2.662%
O=C(Nc1nc2c(s1)CN(C(=O)NCc1cccs1)CC2)C1CC1,0.3367%,-3.928%,-11.14%,-4.37%,5.699%
CCCc1nc(N2CCC(C)CC2)c2c(n1)c(C)nn2CC,2.908%,4.908%,-12.37%,7.094%,11.34%
O=C(NCC1CCN(CCc2ccccc2)C1)NCC1(O)CCC1 (centres undefined),2.885%,-4.079%,-7.822%,-5.9%,10.13%
C1CCCN(c2nc(C3CC3)no2)CC1,1.499%,-30.17%,-55.19%,5.817%,6.806%
O=S(=O)(c1ccc(F)c(F)c1)N1CCCC(c2nccs2)C1 (centres undefined),-0.2433%,-4.18% & 5.352%,5.275%,-0.1257%,3.731%
c1cncc(N2CCC3(CCCN(c4ccncc4)C3)CC2)c1,6.782%,-,-40.88%,-17.12%,10.48%
Cn1ncc2c(=O)[nH]c(N3CCN(C(=O)c4ccsc4)CC3)nc21,-0.5931%,-5.372%,-14.7%,-6.993%,3.008%
Cc1csc(C(=O)N2CCC(S(C)(=O)=O)CC2)c1,8.549%,0.5587%,-10.99%,-0.2748%,2.646%
Cc1cccnc1CCNCC1(O)CCCN(CC2CCCCC2)C1=O (centres undefined),1.269%,13.22%,-21.54%,2.044%,-0.4484%
O=C(CCn1cncn1)N1CCC2(CC1)[C@H](O)C[C@@H]2OCCO,-0.2457%,11.56%,0.1981%,5.475%,1.176%
CSc1ccccc1C(=O)N1CCOC(CCN(C)C)C1 (centres undefined),9.874%,6.237%,8.792%,3.809%,7.179%
CC[C@@H]1N(CC2CC2)CCC[C@]12CCC(=O)N2CCOC,-0.1269%,-,-9.943%,5.121%,1.622%
COC(CNC(=O)CNC(=O)c1ccccc1)c1cccc(Cl)c1 (centres undefined),3.313%,8.022%,-16.07%,-4.634%,11.11%
Cc1cc2cc(CNC3CCN(CC(=O)N(C)C)CC3)oc2cc1C,-,25.29%,-36.95%,-2.538%,9.091%
O=C(CS(=O)(=O)Cc1ccc(Br)cc1F)Nc1cn[nH]c1,3.44%,18.11%,-3.038%,-1.471%,10.59%
CCN1CC[C@@]2(C(=O)N(C)C)CCN(C(=O)NC(C)C)CC[C@@H]12,6.107%,-,-15.6%,-6.7%,4.854%
CCn1cc(CNCC(c2ccc(C)s2)N2CCOCC2)cn1 (centres undefined),3.571%,-3.799%,1.021%,-15.06%,3.448%
CCN(CCOC)C(=O)c1cc(COc2ccc3c(c2)CCCC3)on1,7.753%,34.66%,-11.58%,-5.906%,-0.5291%
Cc1cnc(N2CCOC3(CCCN(CC(=O)N(C)C)C3)C2)nc1 (centres undefined),2.917%,-,-18.43%,-3.508%,2.674%
Cc1cccc(CN2CC3C[C@]3(NC(=O)c3ccoc3)C2)n1 (some centres undefined),-,16.76%,-32.4%,-6.277%,2.454%
Cc1[nH]c(C2(N)CCCCC2)nc(=O)c1C,-4.673%,-,-6.279%,-10.83%,5.752%
Cc1cnn(CCC(=O)N2CCN(c3ncccc3Cl)CC2)c1,9.138%,-10.02%,-8.089%,-5.943%,5.639%
CC(C)CC(=O)N1CC(=O)c2sc(NCCc3ccccc3)nc2C1,0.3614%,2.666% & -11.24%,15.14%,9.606%,6.78%
CCCN1C[C@H]2CC[C@@H]1CN(C(=O)c1ccc(N(C)CCO)cc1)C2,3.365%,-,-10.72%,1.89%,8.861%
CC(C)c1nccc(CN(C)Cc2cccc(-n3cccn3)c2)n1,3.56%,24%,-7.252%,14.68%,15.08%

Some entries from above, unchanged:

* O=S(=O)(c1ccc(F)c(F)c1)N1CCCC(c2nccs2)C1 (centres undefined) : CoaBC: -0.2433%; Leishmania in macrophages: -4.18% & 5.352%; Pks13 thioesterase: 5.275%; ClpP1P2: -0.1257%; TcHisRS: 3.731%
* C1CCCN(c2nc(C3CC3)no2)CC1 : CoaBC: 1.499%; Leishmania in macrophages: -30.17%; Pks13 thioesterase: -55.19%; ClpP1P2: 5.817%; TcHisRS: 6.806%
* O=c1cc2c(nn1CN1CCSCC1)CCC2 : CoaBC: 0%; Leishmania in macrophages: -4.213% & 20.47%; Pks13 thioesterase: -8.064%; ClpP1P2: -11.03%; TcHisRS: 1.205%

Source: ChEMBL document CHEMBL3988442, “University of Dundee, Small-Polar-MMV Screening Library” (2021).